In patent publication US20220031857A1:
No constants are given. Whether binding was seen depends on the method and setting. Some results given as binding are weak or reduced against the parent protein; the word gives no strength.

Amino acid sequences for entries named in this document (tags omitted). Residues count along the entry.
UniProt Q62351, residues 89-763: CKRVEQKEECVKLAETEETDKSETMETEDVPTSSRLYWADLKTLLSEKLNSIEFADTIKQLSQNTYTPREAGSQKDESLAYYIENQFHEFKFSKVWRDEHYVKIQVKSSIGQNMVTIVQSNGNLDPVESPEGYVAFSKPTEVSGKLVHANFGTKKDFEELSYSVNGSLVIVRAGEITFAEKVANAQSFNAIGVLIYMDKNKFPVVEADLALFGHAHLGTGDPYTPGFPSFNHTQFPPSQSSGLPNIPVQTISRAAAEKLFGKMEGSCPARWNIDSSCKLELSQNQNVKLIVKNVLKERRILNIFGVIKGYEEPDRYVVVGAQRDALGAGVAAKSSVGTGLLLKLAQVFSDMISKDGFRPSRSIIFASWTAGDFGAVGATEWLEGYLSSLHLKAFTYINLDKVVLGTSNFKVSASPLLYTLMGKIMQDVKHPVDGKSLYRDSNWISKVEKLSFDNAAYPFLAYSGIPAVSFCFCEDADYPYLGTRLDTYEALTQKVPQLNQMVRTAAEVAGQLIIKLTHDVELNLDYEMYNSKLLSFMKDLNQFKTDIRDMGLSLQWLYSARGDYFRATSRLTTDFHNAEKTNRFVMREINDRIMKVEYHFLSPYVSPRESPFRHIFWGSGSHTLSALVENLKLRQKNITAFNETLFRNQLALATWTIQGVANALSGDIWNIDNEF

Molecular target: recombinant mouse TfR1 (transferrin receptor 1) (mouse) (UniProt Q62351)
Assay: ELISA

binding	Binder
binds	IDUA-clone 1-hFc (Fc fusion, not shown: a dimerising Fc or GST) chain (part 1 of 2): ARVDQTPQTITKETGESLTINCVLRDNNCALSTTYWYRKKSGSTNEENISKGGRYVETVNSGSKSFSLKINDLTVEDSGTYRCNVRDVQACGNDWVWLDVYGGGTVVTVNA chain (part 2 of 2): APHLVHVDAARALWPLRRFWRSTGFCPPLPHSQADQYVLSWDQQLNLAYVGAVPHRGIKQVRTHWLLELVTTRGSTGRGLSYNFTHLDGYLDLLRENQLLPGFELMGSASGHFTDFEDKQQVFEWKDLVSSLARRYIGRYGLAHVSKWNFETWNEPDHHDFDNVSMTMQGFLNYYDACSEGLRAASPALRLGGPGDSFHTPPRSPLSWGLLRHCHDGTNFFTGEAGVRLDYISLHRKGARSSISILEQEKVVAQQIRQLFPKFADTPIYNDEADPLVGWSLPQPWRADVTYAAMVVKVIAQHQNLLLANTTSAFPYALLSNDNAFLSYHPHPFAQRTLTARFQVNNTRPPHVQLLRKPVLTAMGLLALLDEEQLWAEVSQAGTVLDSNHTVGVLASAHRPQGPADAWRAAVLIYASDDTRAHPNRSVAVTLRLRGVPPGPGLVYVTRYLDNGLCSPDGEWRRLGRPVFPTAEQFRRMRAAEDPVAAAPRPLPAGGRLTLRPALRLPSLLLVHVCARPEKPPGQVTRLRALPLTQGQLVLVWSDEHVGSKCLWTYEIQFSQDGKAYTPVSRKPSTFNLFVFSPDTGAVSGSYRVRALDYWARPGPFSDPVPYLEVPVPRGPPSPGNP
binds	IDUA-clone 10-hFc (Fc fusion, not shown: a dimerising Fc or GST) chain (part 1 of 2): ARVDQTPQTITKETGESLTINCVLRDSNCALSSTYWYRKKSGSTNEENISKGGRYVETVNSGSKSFSLRINDLTVEDSGTYRCNVVQYPSYNNYFWCDVYGDGTAVTVNA chain (part 2 of 2): APHLVHVDAARALWPLRRFWRSTGFCPPLPHSQADQYVLSWDQQLNLAYVGAVPHRGIKQVRTHWLLELVTTRGSTGRGLSYNFTHLDGYLDLLRENQLLPGFELMGSASGHFTDFEDKQQVFEWKDLVSSLARRYIGRYGLAHVSKWNFETWNEPDHHDFDNVSMTMQGFLNYYDACSEGLRAASPALRLGGPGDSFHTPPRSPLSWGLLRHCHDGTNFFTGEAGVRLDYISLHRKGARSSISILEQEKVVAQQIRQLFPKFADTPIYNDEADPLVGWSLPQPWRADVTYAAMVVKVIAQHQNLLLANTTSAFPYALLSNDNAFLSYHPHPFAQRTLTARFQVNNTRPPHVQLLRKPVLTAMGLLALLDEEQLWAEVSQAGTVLDSNHTVGVLASAHRPQGPADAWRAAVLIYASDDTRAHPNRSVAVTLRLRGVPPGPGLVYVTRYLDNGLCSPDGEWRRLGRPVFPTAEQFRRMRAAEDPVAAAPRPLPAGGRLTLRPALRLPSLLLVHVCARPEKPPGQVTRLRALPLTQGQLVLVWSDEHVGSKCLWTYEIQFSQDGKAYTPVSRKPSTFNLFVFSPDTGAVSGSYRVRALDYWARPGPFSDPVPYLEVPVPRGPPSPGNP
